Source: PMC2603005, “Structural insights into phenylethanolamines high-affinity binding site in NR2B from binding and molecular modeling studies” (Molecular Brain, 2008)

Chains of the proteins cited; added tags and fusions are not shown. Residues count along the entry.
UniProt Q00960, 27-393: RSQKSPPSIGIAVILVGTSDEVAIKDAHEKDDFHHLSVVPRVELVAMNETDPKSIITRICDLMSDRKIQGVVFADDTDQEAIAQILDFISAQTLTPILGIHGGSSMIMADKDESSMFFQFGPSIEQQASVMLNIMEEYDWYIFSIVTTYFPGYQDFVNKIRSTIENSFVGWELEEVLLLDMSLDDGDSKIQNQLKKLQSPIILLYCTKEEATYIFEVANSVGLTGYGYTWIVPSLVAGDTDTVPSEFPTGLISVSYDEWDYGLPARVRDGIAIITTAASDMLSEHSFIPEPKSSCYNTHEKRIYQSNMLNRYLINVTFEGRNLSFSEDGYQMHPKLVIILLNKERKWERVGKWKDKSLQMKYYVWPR

Target: 6 × His-ATD2B (amino-terminal domain of NR2B subunit), wild type (Rattus norvegicus, UniProt Q00960)
Test: biochemical
Conditions: Buffer-9 refolded protein, CD at 25°C, mean ± S.E., n = 5

Kd: 3.09 ± 0.94 µM
Compound: O=C(CCCN1CCC(O)(c2ccc(Cl)cc2)CC1)c1ccc(F)cc1 [haloperidol]
